Source: the supplement of paper PMC9254222
Structures can show the parent of a compound that is named as a salt. In all, about 1,100 compounds were measured (“Renilla luciferase signal (cell health) relative to plate median”: median about 0.97, highest 2% from about 1.6 on). The entries are a selection whose mix differs from that of the whole data set.

System: HEK293T (UBE3A T485A transfected, BAR Wnt reporter)
Experiment: Renilla luciferase signal (cell health) relative to plate median (fold (linear ratio)); higher = higher Renilla signal
Conditions: 24 h
In short: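 Chemicals were robotically dosed at 0.01–100 uM for 24 h onto HEK293T cells, starting four hours after transfection with a BAR firefly luciferase Wnt reporter, TK-Renilla and an expression plasmid. The cells had been plated at 4500 cells/well in DMEM with 10% FBS at 37°C and 5% CO2. Following a Dual-Glo luciferase readout, the firefly/Renilla ratio served as the Wnt activity measure and raw Renilla as the cell health measure, both median-centred on each plate. Each value is the mean of four biological replicates.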

Row | Compound | Renilla luciferase signal (concentration: 0.1 uM) | Renilla luciferase signal (concentration: 1 uM) | Renilla luciferase signal (concentration: 10 uM) | Renilla luciferase signal (concentration: 100 uM) | Renilla luciferase signal (concentration: 0.01 uM)
1 | Oc1ccc2ccc3cccc4ccc1c2c34 [1-Hydroxypyrene] | 1.01 | 1.06 | 1.09 | 0.811 | –
2 | COc1ccc(O)c(C(C)(C)C)c1 [2-tert-Butyl-4-methoxyphenol] | 0.947 | 0.971 | 1.22 | 1.03 | –
3 | O=C(CCl)c1ccccc1 [2-Chloroacetophenone] | 1.01 | 1.01 | 0.922 | 0.594 | –
4 | C[n+]1ccc(-c2cc[n+](C)cc2)cc1 [Paraquat] | – | – | – | 2.18 | –
5 | CCOP(=S)(OCC)SCSP(=S)(OCC)OCC [Ethion] | 0.929 | 0.935 | 0.973 | 1.13 | –
6 | O=C(O)C(F)(F)C(F)(F)C(F)(F)C(F)(F)C(F)(F)C(F)(F)C(F)(F)C(F)(F)C(F)(F)C(F)(F)F [Perfluoroundecanoic acid] | 0.861 | 0.837 | 0.868 | 0.248 | –
7 | CCC(=NOC/C=C/Cl)C1=C(O)CC(C2CCOCC2)CC1=O (stereo unspecified) [Tepraloxydim] | 1.05 | 0.941 | 1 | 0.793 | 1.23
8 | CC1(C)CCC(=Cc2ccc(Cl)cc2)C1(O)Cn1cncn1 (stereo unspecified) [Triticonazole] | 0.934 | 0.904 | 1.1 | 1.01 | 0.745
9 | COP(N)(=O)SC (stereo unspecified) [Methamidophos] | 0.989 | 1.14 | 1.04 | 2.27 | 1.08
10 | Nc1nc(N)nc(NC2CC2)n1 [Cyromazine] | 0.889 | 0.95 | 1.05 | 1.86 | 1.1
11 | Nc1ccc([N+](=O)[O-])cc1 [4-Nitroaniline] | 1 | 1.14 | 1.21 | 1.26 | –
12 | CCCCCCCCOC(=O)c1ccccc1C(=O)OCCCCCCCC [Dioctyl phthalate] | 0.974 | 0.864 | 0.951 | 1.24 | –
13 | c1ccc(NNc2ccccc2)cc1 [1,2-Diphenylhydrazine] | 0.914 | 0.888 | 0.819 | 0.993 | –
14 | CCCCCCCCCC[N+](C)(C)CCCCCCCCCC.[Cl-] [Didecyldimethylammonium chloride] | 0.877 | 0.895 | 0.56 | 0.397 | –
15 | COc1ccc(C(c2ccc(OC)cc2)C(Cl)(Cl)Cl)cc1 [Methoxychlor] | 1.02 | 1.12 | 1.05 | 0.345 | 1.35
16 | CCNC(=O)NC(=O)/C(C#N)=N/OC [Cymoxanil] | 1.16 | 1.08 | 1.15 | 2.39 | 1.26
17 | O=c1ccc(=O)[nH][nH]1 [Maleic hydrazide] | 1.01 | 0.977 | 1 | 1.54 | 0.956
18 | c1ccc2c(c1)oc1ccccc12 [Dibenzofuran] | 1.04 | 0.995 | 1.18 | 1.44 | –
19 | CNC(=O)ON=C(SC)C(=O)N(C)C [Oxamyl] | 0.98 | 0.96 | 0.914 | 0.453 | 0.606
20 | COP(=S)(OC)SCn1nnc2ccccc2c1=O [Azinphos-methyl] | 0.859 | 0.934 | 0.897 | 0.768 | 0.899
21 | CSc1nnc(C(C)(C)C)c(=O)n1N [Metribuzin] | 0.918 | 0.968 | 0.925 | 1.02 | 0.764
22 | CN(C)CCO [Dimethylaminoethanol] | 0.893 | 1 | 0.901 | 1.28 | –

Row | Compound | Renilla luciferase signal (concentration: 0.1 uM) | Renilla luciferase signal (concentration: 1 uM) | Renilla luciferase signal (concentration: 10 uM) | Renilla luciferase signal (concentration: 100 uM) | Renilla luciferase signal (concentration: 0.01 uM)
23 | COCCOCCO [Diethylene glycol monomethyl ether] | 1.01 | 0.991 | 1.01 | 1.32 | –
24 | CCC(C)c1cc([N+](=O)[O-])cc([N+](=O)[O-])c1O (stereo unspecified) [Dinoseb] | 1.4 | 1.25 | 1.15 | 0.0233 | –
25 | CC1(C)C(C=C(Cl)Cl)C1C(=O)OCc1cccc(Oc2ccccc2)c1 (stereo unspecified) [Permethrin] | 1.03 | 1.05 | 1.11 | 0.617 | 1.5
26 | C=CC1(C)OC(=O)N(c2cc(Cl)cc(Cl)c2)C1=O (stereo unspecified) [Vinclozolin] | – | – | – | 2.37 | –
27 | COP(=S)(OC)Oc1ccc([N+](=O)[O-])c(C)c1 [Fenitrothion] | 0.98 | 1.05 | 1.05 | 1.42 | 1.12
28 | C#CC(C)(C)NC(=O)c1cc(Cl)cc(Cl)c1 [Propyzamide] | – | – | – | 1.72 | –
29 | N#C/N=C1\SCCN1Cc1ccc(Cl)nc1 [Thiacloprid] | 0.888 | 1.01 | 0.922 | 1.33 | 0.755
30 | ClC1=C(Cl)C2(Cl)C3C(Cl)C=CC3C1(Cl)C2(Cl)Cl (stereo unspecified) [Heptachlor] | 0.778 | 0.976 | 0.949 | 1.04 | –
31 | Cc1cccc([N+](=O)[O-])c1 [3-Nitrotoluene] | 1.17 | 0.989 | 1.06 | 1.12 | –
32 | COc1ccc(C(=CC(=O)N2CCOCC2)c2ccc(Cl)cc2)cc1OC [Dimethomorph] | 1.09 | 0.911 | 0.947 | 0.703 | 1.1
33 | CCOCN(C(=O)CCl)c1c(C)cccc1CC [Acetochlor] | 1.16 | 1.01 | 0.966 | 0.122 | 1.31
34 | CCOS(=O)(=O)OCC [Diethyl sulfate] | 0.865 | 1.01 | 1 | 1.21 | –
35 | CO/N=C(/C1=NOCCO1)c1ccccc1Oc1ncnc(Oc2ccccc2Cl)c1F [Fluoxastrobin] | 0.941 | 1.05 | 0.383 | 1.63 | 0.875
36 | c1ccc2c(c1)-c1cccc3cccc-2c13 [Fluoranthene] | 0.945 | 0.934 | 0.905 | 1.05 | –
37 | COCC(C)N(C(=O)CCl)c1c(C)csc1C (stereo unspecified) [Dimethenamid] | 0.872 | 0.915 | 0.762 | 0.762 | 0.861
38 | N#Cc1c[nH]cc1-c1cccc2c1OC(F)(F)O2 [Fludioxonil] | 1.15 | 1.07 | 1.12 | 1.28 | 1.03
39 | Cc1ccc(-c2c(Cl)nc(C#N)n2S(=O)(=O)N(C)C)cc1 [Cyazofamid] | 1.04 | 1.08 | 0.959 | 0.0232 | 0.803
40 | Nn1cnnc1 [4-Amino-1,2,4-triazole] | 0.956 | 0.961 | 1.09 | 1.21 | –
41 | CC1(C)CON(Cc2ccccc2Cl)C1=O [Clomazone] | 1.14 | 1.02 | 1.06 | 1.4 | 1.23
42 | C1CC2OC2CC1C1CO1 (stereo unspecified) [4-Vinyl-1-cyclohexene dioxide] | 0.978 | 0.971 | 0.856 | 0.459 | –
43 | Nc1ccc(-c2ccc(N)cc2)cc1 [Benzidine] | 0.823 | 0.83 | 0.856 | 1.23 | –
44 | Cc1ccc(N)c(N)c1 [3,4-Diaminotoluene] | 1.06 | 0.86 | 0.793 | 0.0346 | –

An excerpt of these results, as labelled records.
CCOCN(C(=O)CCl)c1c(C)cccc1CC [Acetochlor]
  Renilla luciferase signal (concentration: 0.1 uM): 1.16; Renilla luciferase signal (concentration: 1 uM): 1.01; Renilla luciferase signal (concentration: 10 uM): 0.966; Renilla luciferase signal (concentration: 100 uM): 0.122; Renilla luciferase signal (concentration: 0.01 uM): 1.31
CCOS(=O)(=O)OCC [Diethyl sulfate]
  Renilla luciferase signal (concentration: 0.1 uM): 0.865; Renilla luciferase signal (concentration: 1 uM): 1.01; Renilla luciferase signal (concentration: 10 uM): 1; Renilla luciferase signal (concentration: 100 uM): 1.21
CO/N=C(/C1=NOCCO1)c1ccccc1Oc1ncnc(Oc2ccccc2Cl)c1F [Fluoxastrobin]
  Renilla luciferase signal (concentration: 0.1 uM): 0.941; Renilla luciferase signal (concentration: 1 uM): 1.05; Renilla luciferase signal (concentration: 10 uM): 0.383; Renilla luciferase signal (concentration: 100 uM): 1.63; Renilla luciferase signal (concentration: 0.01 uM): 0.875
c1ccc2c(c1)-c1cccc3cccc-2c13 [Fluoranthene]
  Renilla luciferase signal (concentration: 0.1 uM): 0.945; Renilla luciferase signal (concentration: 1 uM): 0.934; Renilla luciferase signal (concentration: 10 uM): 0.905; Renilla luciferase signal (concentration: 100 uM): 1.05

(next part)

Row | Compound | Renilla luciferase signal (concentration: 0.1 uM) | Renilla luciferase signal (concentration: 1 uM) | Renilla luciferase signal (concentration: 10 uM) | Renilla luciferase signal (concentration: 100 uM) | Renilla luciferase signal (concentration: 0.01 uM)
45 | Cc1cccc(N)c1N [2,3-Diaminotoluene] | 0.728 | 0.75 | 0.772 | 0.198 | –
46 | Cc1ccc([N+](=O)[O-])cc1C [1,2-Dimethyl-4-nitrobenzene] | 0.986 | 1.01 | 0.915 | 1.19 | –
47 | Cc1ccn2nc(S(=O)(=O)Nc3c(F)cccc3F)nc2n1 [Flumetsulam] | 1.07 | 0.959 | 1.07 | 1.67 | 0.963
48 | O=[N+]([O-])c1cc(C(F)(F)F)c(Cl)c([N+](=O)[O-])c1Nc1ncc(C(F)(F)F)cc1Cl [Fluazinam] | 1.02 | 1.08 | 0.363 | 0.0145 | 1.43
49 | CCNS(=O)(=O)C(F)(F)C(F)(F)C(F)(F)C(F)(F)C(F)(F)C(F)(F)C(F)(F)C(F)(F)F [Sulfluramid] | 0.9 | 0.603 | 0.698 | 0.643 | –
50 | CC(C)OC(=O)Nc1cccc(Cl)c1 [Chlorpropham] | 0.618 | 0.828 | 0.81 | 0.766 | 0.728
51 | CCC(C)C1OC2(C=CC1C)CC1CC(CC=C(C)C(OC3CC(OC)C(OC4CC(OC)C([NH2+]C)C(C)O4)C(C)O3)C(C)C=CC=C3COC4C(O)C(C)=CC(C(=O)O1)C34O)O2.O=C([O-])c1ccccc1 (stereo unspecified) [Emamectin benzoate] | 1.08 | 0.877 | 0.0929 | 0.0231 | 1.02
52 | CC(C)(C)OOC(C)(C)C [Di-tert-butyl peroxide] | 1.07 | 0.922 | 1.09 | 1.12 | –
53 | CCN(CC)c1ccccc1 [N,N-Diethylaniline] | 1.07 | 1.06 | 1.09 | 1.47 | –
54 | CO/C=C(/C(=O)OC)c1ccccc1Oc1cc(Oc2ccccc2C#N)ncn1 [Azoxystrobin] | 0.878 | 0.965 | 0.721 | 0.326 | 0.863
55 | N#Cc1cc(Br)c(O)c(Br)c1 [Bromoxynil] | 1.25 | 1.01 | 1.04 | 0.148 | 1.21
56 | CN(C)C(=O)Cl [Dimethylcarbamoyl chloride] | 1.04 | 1.06 | 1.09 | 1.37 | –
57 | CCOc1cc(Oc2ccc(C(F)(F)F)cc2Cl)ccc1[N+](=O)[O-] [Oxyfluorfen] | 0.749 | 0.853 | 0.78 | 0.248 | 0.706
58 | O=C(O)C1C(C(=O)O)C2(Cl)C(Cl)=C(Cl)C1(Cl)C2(Cl)Cl (stereo unspecified) [Chlorendic acid] | 0.994 | 0.911 | 0.965 | 0.955 | –
59 | Cc1ccc([N+](=O)[O-])cc1 [4-Nitrotoluene] | 0.29 | 0.237 | 0.173 | 0.391 | –
60 | Cn1cc(-c2ccccc2)c(=O)c(-c2cccc(C(F)(F)F)c2)c1 [Fluridone] | 0.931 | 0.971 | 1.03 | 0.667 | –
61 | CCCCCCCc1ccc(O)cc1 [4-Heptylphenol] | 1.21 | 1.2 | 1.24 | 1.33 | –
62 | Oc1cc(Cl)ccc1Oc1ccc(Cl)cc1Cl [Triclosan] | 0.922 | 0.956 | 0.911 | 0.083 | 0.941
63 | CS/C(C)=N/OC(=O)N(C)SN(C)C(=O)O/N=C(\C)SC [Thiodicarb] | 0.646 | 0.895 | 0.91 | 0.0128 | 1
64 | CCC(C)c1ccc(O)cc1 (stereo unspecified) [4-(Butan-2-yl)phenol] | 1.03 | 1.04 | 0.967 | 1.21 | –
